In PubChem BioAssay AID330 (DTP/NCI, 2004):
The list is a part of this screen's results and no random one: it is rich in T/C values a quarter to a half above the control, in often repeated tests (any T/C) and in doses without a T/C. Other doses and runs of a compound stand elsewhere. T/C: endpoint of the treated group in % of that of the vehicle group. Some entries give survivors of the animals treated and no T/C: the source files T/C as zero there, which appears to mark a toxic dose or a test without result, not a measured value. Some doses without a T/C left all or most animals alive at the check, yet need not have been tolerated: the source hardly ever lists a survival T/C far under the control, and the zero likely stands for such cases as well. Counts of survivors are from the toxicity check (mostly the fifth day) where no day follows; animals may have died later. Schedules are NCI's codes, read here as Q, the interval in days (D) or hours (H), X, the number of doses. Counts like (3×) say how often a value occurs here. Some doses were run more than once; their values stand side by side, smallest first. Where survival is the endpoint, the PubChem record calls one and a half times the control and up active, and a quarter to a half above the control has no call in these data; cut-offs in other NCI protocols can differ.

System: P388 leukemia ip, CD2F1 mice, survival T/C
Assay: NCI In Vivo Anticancer Drug Screen. Data for tumor model P388 Leukemia (intraperitoneal) in CD2F1 (CDF1) mice
Conditions: T/C endpoint: median survival time, higher T/C = longer survival
[1] = dose: 240.0 mg/kg/injection, schedule: Q01DX005 (ip), vehicle: saline with Tween-80
[2] = dose: 240.0 mg/kg/injection, schedule: Q01DX005 (ip), vehicle: Klucel (hydroxypropylcellulose) (HPC)
[3] = dose: 200.0 mg/kg/injection, schedule: Q01DX005 (ip), vehicle: saline with Tween-80
[4] = dose: 12.5 mg/kg/injection, schedule: Q01DX009 (ip), vehicle: water
[5] = dose: 25.0 mg/kg/injection, schedule: Q01DX009 (ip), vehicle: water
[6] = dose: 100.0 mg/kg/injection, schedule: Q01DX009 (ip), vehicle: water
[7] = dose: 25.0 mg/kg/injection, schedule: Q01DX005 (ip), vehicle: saline with Tween-80
[8] = dose: 100.0 mg/kg/injection, schedule: Q01DX005 (ip), vehicle: saline with Tween-80
[9] = dose: 100.0 mg/kg/injection, schedule: Q01DX009 (ip), vehicle: Klucel (hydroxypropylcellulose) (HPC)
[10] = dose: 200.0 mg/kg/injection, schedule: Q01DX009 (ip), vehicle: Klucel (hydroxypropylcellulose) (HPC)
[11] = dose: 100.0 mg/kg/injection, schedule: Q04DX003 (ip), vehicle: distilled water + Tween-80
[12] = dose: 400.0 mg/kg/injection, schedule: Q04DX003 (ip), vehicle: saline with Tween-80

Q: How did the survivor count (dose: 15.0 mg/kg/injection, schedule: Q01DX005 (ip), vehicle: saline with Tween-80) turn out when `O=C1C=CC(Nc2cc(Cl)ccc2Cl)C1Nc1cc(Cl)ccc1Cl` (stereo not given) was run?
A: 6 of 6

Q: What about the survivor count (dose: 30.0 mg/kg/injection, schedule: Q01DX005 (ip), vehicle: saline with Tween-80) of the same compound?
A: 6 of 6

Q: What about the survivor count (dose: 60.0 mg/kg/injection, schedule: Q01DX005 (ip), vehicle: saline with Tween-80) of the same compound?
A: 6 of 6

Q: And the survivor count (dose: 120.0 mg/kg/injection, schedule: Q01DX005 (ip), vehicle: saline with Tween-80)?
A: 6 of 6

Q: And the survivor count [1]?
A: 6 of 6

Q: Which results are given for `CCc1nc(N)nc(N)c1-c1ccc(N(C)Cc2ccccc2)c([N+](=O)[O-])c1`?
A: T/C (dose: 60.0 mg/kg/injection, schedule: Q01DX005 (ip), vehicle: Klucel (hydroxypropylcellulose) (HPC)): 125 % of control; T/C (dose: 120.0 mg/kg/injection, schedule: Q01DX005 (ip), vehicle: Klucel (hydroxypropylcellulose) (HPC)): 145 % of control; T/C [2]: 145 % of control

Q: With `CC1Cc2ccc(OCCN(C)C)cc2C1=O` (stereo not given) as the compound, how does the survivor count [3] read?
A: 0 of 5

Q: With `O=C(CCl)NC(Cc1ccsc1)C(=O)O` (stereo not given) as the compound, how does the survivor count (dose: 200.0 mg/kg/injection, schedule: Q01DX009 (ip), vehicle: saline) read?
A: 3 of 6

Q: Which results are given for `C=CC(C)(O)/C=C/C=C(\C)C(CC1OC1(C)C)OC(=O)/C(C)=C\C` (stereo not given)?
A: survivor count (dose: 12.5 mg/kg/injection, schedule: Q01DX009 (ip), vehicle: Klucel (hydroxypropylcellulose) (HPC)): 5 of 6; survivor count (dose: 25.0 mg/kg/injection, schedule: Q01DX009 (ip), vehicle: Klucel (hydroxypropylcellulose) (HPC)): 5 of 6

Q: How did the survivor count (dose: 200.0 mg/kg/injection, schedule: Q01DX009 (ip), vehicle: distilled water + Tween-80 + alcohol) turn out when `N#C/C(=C1/Nc2ccccc2NC1=O)c1ccccc1` was run?
A: 6 of 6

Q: With `C=C1CCCC2CCC[N+](C)(CC(=O)OCC)C12` (stereo not given) as the compound, how does the survivor count (dose: 100.0 mg/kg/injection, schedule: Q01DX005 (ip), vehicle: saline) read?
A: 0 of 6

Q: And the survivor count (dose: 200.0 mg/kg/injection, schedule: Q01DX005 (ip), vehicle: saline)?
A: 0 of 6

Q: Which results are given for `Nc1n[n+](-c2ccc(Cl)cc2)no1`?
A: T/C [4]: 133 % of control; T/C [5]: 137 % of control; survivor count [6]: 0 of 6 and 2 of 6

Q: `FC(F)(F)C(F)(F)C(F)(F)C(F)(F)C(F)(F)C(F)(F)C[CH2][Sn]([Cl])([Cl])[CH2]CC(F)(F)C(F)(F)C(F)(F)C(F)(F)C(F)(F)C(F)(F)F` was tested. Which T/C [1] did it give?
A: 125 % of control

Q: With `Cc1ccc(NC(=O)/C=C2\CONC(c3ccccc3)=N2)cc1` as the compound, how does the survivor count [1] read?
A: 6 of 6

Q: With `C[NH-].C[NH-].[Cl][Pt+2][Cl]` as the compound, how does the T/C (dose: 6.25 mg/kg/injection, schedule: Q01DX009 (ip), vehicle: saline) read?
A: 141 % of control

Q: And the survivor count (dose: 12.5 mg/kg/injection, schedule: Q01DX009 (ip), vehicle: saline)?
A: 5 of 6 and 6 of 6

Q: And the survivor count (dose: 25.0 mg/kg/injection, schedule: Q01DX009 (ip), vehicle: saline)?
A: 2 of 6 and 6 of 6

Q: What about the survivor count (dose: 50.0 mg/kg/injection, schedule: Q01DX009 (ip), vehicle: saline) of the same compound?
A: 0 of 6 and 1 of 6

Q: Which results are given for `COC1=C(OC)C(=O)C(Sc2ccccc2)=C(CO)C1=O`?
A: survivor count (dose: 6.25 mg/kg/injection, schedule: Q01DX005 (ip), vehicle: saline with Tween-80): 6 of 6; survivor count [7]: 1 of 6; survivor count (dose: 50.0 mg/kg/injection, schedule: Q01DX005 (ip), vehicle: saline with Tween-80): 0 of 6; survivor count [8]: 0 of 6; survivor count [3]: 0 of 6

Q: For `CCCCCCCCCC(C)N1CCCN=C1C` (stereo not given), which survivor count (dose: 50.0 mg/kg/injection, schedule: Q01DX009 (ip), vehicle: Klucel (hydroxypropylcellulose) (HPC)) is on record?
A: 0 of 6

Q: And the survivor count [9]?
A: 0 of 6

Q: What about the survivor count [10] of the same compound?
A: 0 of 6

Q: What does the source list for `CN(/N=C/c1ccc(Cl)cc1)P(=O)(N1CC1)N1CC1`?
A: T/C [7]: 134 % of control; T/C [8]: 125 % of control; survivor count [3]: 4 of 6

Q: What does the source list for `Nc1c2cc3c(cc2c[n+]2ccccc12)OCO3`?
A: T/C (dose: 25.0 mg/kg/injection, schedule: Q04DX003 (ip), vehicle: distilled water + Tween-80): 128 % of control; T/C (dose: 50.0 mg/kg/injection, schedule: Q04DX003 (ip), vehicle: distilled water + Tween-80): 130 and 141 % of control; T/C [11]: 143 % of control; survivor count [11]: 6 of 6; survivor count (dose: 200.0 mg/kg/injection, schedule: Q04DX003 (ip), vehicle: distilled water + Tween-80): 0 of 6 and 1 of 6; survivor count (dose: 400.0 mg/kg/injection, schedule: Q04DX003 (ip), vehicle: distilled water + Tween-80): 0 of 6 and 1 of 6

Q: Which survivor count [2] does the source give for `O=C(O)c1ccc2c(c1Sc1ccccc1)C(=O)c1ccccc1C2=O` here?
A: 3 of 6

Q: For `C/C=C/C(=O)Sc1ccccc1`, which survivor count [9] is on record?
A: 0 of 6

Q: And the survivor count [10]?
A: 0 of 6

Q: Which survivor count (dose: 200.0 mg/kg/injection, schedule: Q01DX005 (ip), vehicle: Klucel (hydroxypropylcellulose) (HPC)) does the source give for `CN(C)C1CCc2ccc3ccccc3c2C1=O` (stereo not given) here?
A: 0 of 6

Q: Which T/C (dose: 18.7 mg/kg/injection, schedule: Q01DX009 (ip), vehicle: saline with Tween-80) does the source give for `O=C1C=C(N2CC2)c2ccccc2C1=O` here?
A: 131 % of control

Q: And the survivor count (dose: 25.0 mg/kg/injection, schedule: Q01DX009 (ip), vehicle: saline with Tween-80)?
A: 5 of 6

Q: And the T/C (dose: 25.0 mg/kg/injection, schedule: Q04DX003 (ip), vehicle: saline with Tween-80)?
A: 140 % of control

Q: And the survivor count (dose: 100.0 mg/kg/injection, schedule: Q04DX003 (ip), vehicle: saline with Tween-80)?
A: 0 of 6

Q: What about the survivor count (dose: 200.0 mg/kg/injection, schedule: Q04DX003 (ip), vehicle: saline with Tween-80) of the same compound?
A: 0 of 6

Q: What about the survivor count [12] of the same compound?
A: 0 of 6

Q: Which survivor count [9] does the source give for `CC/C=c1/[nH]c(=O)/c(=C\c2ccc([N+](=O)[O-])cc2)[nH]c1=O` here?
A: 6 of 6

Q: `C[C@]12CC[C@H](O)CC1=CC[C@@H]1[C@@H]2CC[C@]2(C)C(=O)CC[C@@H]12` was tested. Which survivor count (dose: 400.0 mg/kg/injection, schedule: Q01DX005 (ip), vehicle: saline with Tween-80) did it give?
A: 2 of 5

Q: `COc1cc(/C=N/NP(=S)(Oc2ccc(C(C)(C)C)cc2)Oc2ccc(C(C)(C)C)cc2)cc(OC)c1O` was tested. Which survivor count [10] did it give?
A: 6 of 6

Q: Which survivor count [12] does the source give for `Cc1cccc(C(=O)/C=C2/CCCN2C)c1` here?
A: 5 of 6

Q: With `CC([NH-])CC(C)[NH-].O=C(O)C(=O)O.[Pt+2]` (stereo not given) as the compound, how does the T/C (dose: 6.25 mg/kg/injection, schedule: Q04DX002 (ip), vehicle: saline with Tween-80) read?
A: 147 % of control

Q: Which results are given for `COc1cccc2c1C(=O)c1c(O)c3c(c(O)c1C2=O)C[C@@](O)(/C(C)=N/NC(=O)c1ccc(-c2ccccc2)cc1)C[C@@H]3OC1CC(N)C(O)C(C)O1` (stereo not given in full)?
A: T/C (dose: 0.25 mg/kg/injection, schedule: Q01DX009 (ip), vehicle: water): 134 % of control; T/C (dose: 0.5 mg/kg/injection, schedule: Q01DX009 (ip), vehicle: water): 138 % of control; T/C (dose: 1.0 mg/kg/injection, schedule: Q01DX009 (ip), vehicle: water): 146 % of control; T/C (dose: 3.13 mg/kg/injection, schedule: Q01DX001 (ip), vehicle: water): 145 % of control; T/C (dose: 4.0 mg/kg/injection, schedule: Q01DX009 (ip), vehicle: water): 133 % of control; T/C (dose: 12.0 mg/kg/injection, schedule: Q04DX003 (ip), vehicle: water): 145 % of control; survivor count [4]: 5 of 6; survivor count (dose: 16.0 mg/kg/injection, schedule: Q01DX009 (ip), vehicle: water): 6 of 6 (2×); survivor count [5]: 5 of 6; T/C (dose: 48.0 mg/kg/injection, schedule: Q04DX003 (ip), vehicle: water): 135 % of control; survivor count (dose: 50.0 mg/kg/injection, schedule: Q01DX001 (ip), vehicle: water): 5 of 6; survivor count (dose: 50.0 mg/kg/injection, schedule: Q01DX009 (ip), vehicle: water): 3 of 6; survivor count (dose: 100.0 mg/kg/injection, schedule: Q01DX001 (ip), vehicle: water): 0 of 6; survivor count [6]: 1 of 6
